Data as given in PubChem BioAssay AID743121 (NCATS, 2013).
This is an unselected part of about 26,000 reagents tested. Over the whole deposit, 167 (0.63%) are marked active. 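Calls are per gene from RSA p-values that are not deposited; an individual active-marked siRNA can sensitise only weakly.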 The numbers tell different reagents against one gene apart. Not all columns of the deposit are shown. Reagent sequences are not shown.

- Aim: 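Knock-downs that sensitise breast cancer cells to camptothecin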 (primary screen)
- Cells: MDA-MB-231 cells, a human breast cancer line
- Reagent: single siRNA against human genes, 20 nM siRNA (0.8 pmol per well)
- Duration: 120 h (drug added 48 h after transfection, read 72 h later)
- Challenge: camptothecin 20 nM (about EC30) for 72 h; vehicle 0.1% DMSO in parallel plates
- Measurement: 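Cell viability by ATP luminescence (CellTiter-Glo) as % of non-targeting siRNA wells, and the log2 ratio of viability without drug over viability with camptothecin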
- Scale: log2 vehicle/camptothecin viability: higher = stronger sensitisation to camptothecin; viability with camptothecin: higher = more viable cells
- Units: viability with camptothecin in % of control
- Rule for the call: 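Each gene scored by redundant siRNA activity (RSA) over its individual siRNA ratios; a gene is called active at p < 0.001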

With knock-down of GTF2H1 (general transcription factor IIH subunit 1) #1 the results were log2 vehicle/camptothecin viability -0.137; viability with camptothecin 44.5; inactive.
For GTF2H1 (general transcription factor IIH subunit 1) #2, the values are log2 vehicle/camptothecin viability 0.236; viability with camptothecin 72.4; inactive.
Depletion of GTF2H1 (general transcription factor IIH subunit 1) #3 resulted in: log2 vehicle/camptothecin viability -0.438; viability with camptothecin 95.1; inactive.
Silencing of GTF2H1 (general transcription factor IIH subunit 1) #4 gave: log2 vehicle/camptothecin viability 0.153; viability with camptothecin 78.8; inactive.
Against TRIM68 (tripartite motif containing 68) #1 the deposit lists log2 vehicle/camptothecin viability -0.615; viability with camptothecin 31.2; inactive.
For TRIM68 (tripartite motif containing 68) #2 the deposit lists log2 vehicle/camptothecin viability -0.258; viability with camptothecin 48.2; inactive.
Knock-down of TRIM68 (tripartite motif containing 68) #3 gave: log2 vehicle/camptothecin viability -0.0073; viability with camptothecin 77.8; inactive.
Against TRIM68 (tripartite motif containing 68) #4, the entry reads log2 vehicle/camptothecin viability -0.13; viability with camptothecin 114; inactive.
With knock-down of PDE6B (phosphodiesterase 6B) #1, the record shows log2 vehicle/camptothecin viability 0.0486; viability with camptothecin 60.8; inactive.
PDE6B (phosphodiesterase 6B) #2 showed log2 vehicle/camptothecin viability -0.271; viability with camptothecin 60; inactive.
PDE6B (phosphodiesterase 6B) #3 gave log2 vehicle/camptothecin viability 0.706; viability with camptothecin 32.6; inactive.
PDE6B (phosphodiesterase 6B) #4 showed log2 vehicle/camptothecin viability -0.107; viability with camptothecin 83.9; inactive.

Single entries from above.
Result for PDE6B (phosphodiesterase 6B) #2 in “log2 vehicle/camptothecin viability”: -0.271
Under “log2 vehicle/camptothecin viability”, GTF2H1 (general transcription factor IIH subunit 1) #3 reads -0.438

Next entries follow.
For B4GALNT1 (beta-1,4-N-acetyl-galactosaminyltransferase 1) #1, the values are log2 vehicle/camptothecin viability -0.196; viability with camptothecin 77.5; inactive.
With knock-down of B4GALNT1 (beta-1,4-N-acetyl-galactosaminyltransferase 1) #2, the screen gave log2 vehicle/camptothecin viability -0.713; viability with camptothecin 97.9; inactive.
After knock-down of B4GALNT1 (beta-1,4-N-acetyl-galactosaminyltransferase 1) #3, the record shows log2 vehicle/camptothecin viability 0.233; viability with camptothecin 83.4; inactive.
Silencing of B4GALNT1 (beta-1,4-N-acetyl-galactosaminyltransferase 1) #4 gave: log2 vehicle/camptothecin viability -0.42; viability with camptothecin 48.6; inactive.
Silencing of PAICS #1 resulted in: log2 vehicle/camptothecin viability 0.099; viability with camptothecin 99.7; inactive.
After knock-down of PAICS #2 the results were log2 vehicle/camptothecin viability -0.203; viability with camptothecin 66.7; inactive.
Silencing of PAICS #3 resulted in: log2 vehicle/camptothecin viability -0.254; viability with camptothecin 109; inactive.
For ATAD2 (ATPase family AAA domain containing 2) #1 the deposit lists log2 vehicle/camptothecin viability 0.233; viability with camptothecin 68.5; inactive.
After knock-down of ATAD2 (ATPase family AAA domain containing 2) #2, the record shows log2 vehicle/camptothecin viability -0.0968; viability with camptothecin 101; inactive.
Depletion of ATAD2 (ATPase family AAA domain containing 2) #3 resulted in: log2 vehicle/camptothecin viability -0.113; viability with camptothecin 74.8; inactive.
ATAD2 (ATPase family AAA domain containing 2) #4 showed log2 vehicle/camptothecin viability -0.16; viability with camptothecin 13.1; inactive.
After knock-down of CTSO (cathepsin O) #1, the screen gave log2 vehicle/camptothecin viability -0.347; viability with camptothecin 81; inactive.
Depletion of CTSO (cathepsin O) #2 resulted in: log2 vehicle/camptothecin viability -0.365; viability with camptothecin 78.8; inactive.
After knock-down of CTSO (cathepsin O) #3, the screen gave log2 vehicle/camptothecin viability 0.074; viability with camptothecin 87.6; inactive.
